From PMC6296734, “The CbrB Regulon: Promoter dissection reveals novel insights into the CbrAB expression network in Pseudomonas putida”
The exact form of at least one protein or probe is not confirmed. For some assays here: A negative result means that nothing was seen under these conditions. Tags and fusion partners may be left off the protein sequences shown. For some assays here: Weaker means in comparison with the reference protein, sequence or condition of that experiment.

How the values were obtained:
CbrB [1] = target: T1, CbrB (UniProt A0ABM7EKZ2); test: DNase I footprinting; details: CbrB 0-4.9 uM, altered pattern -210 to -270; crcZ/crcY (5 nM): 35 mM Tris-acetate pH 7.9, 70 mM KAc, 20 mM NH4Ac, 2 mM MgAc2, 1 mM CaCl2, 1 mM DTT, 5% glycerol; others (1.5 nM) and footprint: 50 mM Tris-HCl pH 7.4; recombinant protein; protein details: N-terminal His tag (pET-14b derived pMPO1229); label: 32P-dCTP Klenow fill-in, top strand; probe letters rebuilt from the primers and the genome
T1 sequence (looked up, limits assumed): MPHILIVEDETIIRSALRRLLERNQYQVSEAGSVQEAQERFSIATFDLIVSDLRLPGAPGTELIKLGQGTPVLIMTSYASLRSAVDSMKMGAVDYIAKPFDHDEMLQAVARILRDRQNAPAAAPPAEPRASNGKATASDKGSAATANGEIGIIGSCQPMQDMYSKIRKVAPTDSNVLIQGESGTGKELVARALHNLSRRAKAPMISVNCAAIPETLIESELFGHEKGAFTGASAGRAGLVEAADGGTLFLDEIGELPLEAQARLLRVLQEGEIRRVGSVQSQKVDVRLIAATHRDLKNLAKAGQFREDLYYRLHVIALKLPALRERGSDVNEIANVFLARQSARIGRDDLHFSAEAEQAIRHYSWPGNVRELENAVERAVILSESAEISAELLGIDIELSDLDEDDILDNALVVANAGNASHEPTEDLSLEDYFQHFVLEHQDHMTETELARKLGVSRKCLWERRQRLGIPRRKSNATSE

CbrB [2] = target: T1, CbrB; test: EMSA; details: EMSA at room temperature, recombinant protein, protein details: N-terminal His tag (pET-14b derived pMPO1229), label: 32P-dCTP Klenow fill-in, probe letters rebuilt from the primers and the genome
CbrB [3] = target: T2, CbrB (UniProt A0ABM7EKZ2); test: EMSA; details: slightly reduced; EMSA at room temperature; recombinant protein; protein details: N-terminal His tag (pET-14b derived pMPO1229); label: 32P-dATP Klenow fill-in
T2 sequence (looked up, limits assumed): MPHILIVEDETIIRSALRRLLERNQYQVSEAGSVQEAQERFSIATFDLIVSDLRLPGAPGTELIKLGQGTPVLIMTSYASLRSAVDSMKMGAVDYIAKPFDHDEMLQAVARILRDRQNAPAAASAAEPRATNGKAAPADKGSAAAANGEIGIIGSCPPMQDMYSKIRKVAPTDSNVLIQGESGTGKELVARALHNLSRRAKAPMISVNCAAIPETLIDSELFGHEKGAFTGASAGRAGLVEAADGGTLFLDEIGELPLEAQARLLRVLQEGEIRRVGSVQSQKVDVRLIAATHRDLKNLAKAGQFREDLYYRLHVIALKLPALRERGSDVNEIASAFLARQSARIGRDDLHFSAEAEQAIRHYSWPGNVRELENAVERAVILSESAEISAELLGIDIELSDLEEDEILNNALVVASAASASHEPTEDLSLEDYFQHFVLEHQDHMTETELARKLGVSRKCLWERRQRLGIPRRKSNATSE

## GGGAAAGCCTGCTTTTTTACCGCCCCTAGGGGCGGTTTTTTTATGGGTGAATCATTCGCGTCAGTCATGGGCCTGGATAAGCGAAAAATAGTTAGGGTTCAGTGTGGCAGTGGTAGACCTTTAGGTGGCGCACTATTAAAAGGCATCTTTTGGTAACACATGTTTCCTTACTTCCCAATAATGTGCAGGCGCCAGGCACGCATTAGTCGATAAATAAATTCAACTCGCTGATTTCTCTAGCGTAATCCGCCTATCTAG (double strand) [PPP2810 footprint fragment, top strand]
CbrB [1]
  binding result: binds

## GGGAGCGACATGATCAACTGACCATGTCATGTGATCAACACGCAAGCCACATGCCAGAATGCGTCATAGGCGGATTACGCTAGAGAAATCAGCGAGTTGAATTTATTTATCGACTAATGCGTGCCTGGCGCCTGCACATTATTGGGAAGTAAGGAAACATGGAGGCTCAAAAGATGCCTTTTAATAGTGCGCCACCTAAAGGTCTACCACTGCCACACTGAACCCTAACTATTTTTCGCTTATCCAGGCCCATGACTGACGCGAATGATTCACCCATTCTAG (double strand) [PPP2810 R1 mutant]
CbrB [2]
  binding result: no binding

## GGGAGCGACATGATCAACTGACCATGTCATGTGATCAACACGCAAGCCACATGCCAGAATGCGTCATAGGCGGATTACGCTAGAGAAATCAGCGAGTTGAATTTATTTATCGACTAATGCGTGCCTGGCGCCTGCACATTATTGGGAAGTAAGGAAACATGTGTTACCAAAAGATGCCTTCGCCGCGTGCGCCACCTAAAGGTCTACCACTGCCACACTGAACCCTAACTATTTTTCGCTTATCCAGGCCCATGACTGACGCGAATGATTCACCCATTCTAG (double strand) [PPP2810 F1 mutant]
CbrB [2]; no obvious alteration
  binding result: binds

## GGGAGCGACATGATCAACTGACCATGTCATGTGATCAACACGCAAGCCACATGCCAGAATGCGTCATAGGCGGATTACGCTAGAGAAATCAGCGAGTTGAATTTATTTATCGACTAATGCGTGCCTGGCGCCTGCACATTATTGGGAAGTAAGGAAACATGTGTTACCAAAAGATGCCTTTTAATAGTGCGCCACCTAAAGGTCTACCACTGCCACACTGAACCCTAACTATTTTTCGCTTATCCAGGCCCATGACTGACGCGAATGATTCACCCATTCTAG (double strand) [PPP2810 wt]
CbrB [2]; CbrB 0-2 uM, affinity lower than crcZ and crcY
  binding result: binds

## GGGAGCGACATGATCAACTGACCATGTCATGTGATCAACACGCAAGCCACATGCCAGAATGCGTCATAGGCGGATTACGCTAGAGAAATCAGCGAGTTGAATTTATTTATCGACTAATGCGTGCCTGGCGCCTGCACGCCGCCGGGAAGTAAGGAAACATGTGTTACCAAAAGATGCCTTTTAATAGTGCGCCACCTAAAGGTCTACCACTGCCACACTGAACCCTAACTATTTTTCGCTTATCCAGGCCCATGACTGACGCGAATGATTCACCCATTCTAG (double strand) [PPP2810 R2 mutant]
CbrB [2]; no obvious alteration
  binding result: binds

## GGGGAATTCACGCAAGGGTACGGGCCGTCCGCTGGCGGGCGCATTGGCCTTGTCGGGCACTTCGTCTTCCAGCATCTGCATCGCGTGGTTCCCGCGCAGGGCGTACGTTCAGAACTGCATCAAGGCCAATGGCAGCAGCCACTGGGTAGCAATCCACCTGGGCAGTCGCAGCTGCCATTTGTCGCGTGTCGCGCTTCACAAACTTCGCTGCAAAAACTTGGCCAGCAGAAACATTCCAAATTAAAAATGTTATTTTTCAGTAGGTTGCCATAACTTATTAAGATTAATTAGAGGATTAACCCCCACATTTGGGGGATTATCACCCAAAAAACACAAATCCTTTTCATATCAACATCTTACTGAACAATCCTGATGTCATTTAACGAATTCACGCCAGTCGGAAACTTAACGAAACCCTTGTGCCATGGCCTTCACTGCTGCTGAGCCGGACCGTACCGCCGAAACGTTCCATGATGTCTAG (double strand) [PP3420 promoter]
CbrB [2]; CbrB 0-2 uM, lowest affinity of the shifted promoters
  binding result: binds

## GGGTTCCATGTCGCAAATCACGCCCCGGTTCAGGGGCCGTATAACCTCAGCGCTATTCCTGTCACCGTAACGAATCTGTAACTGCTGATTCCGGTTGAGGAAACTCCCTGGTAACCCATGTCGCTGTTGTTATTTGTCGCGTACACCTGTCACTGCAGATGTCGTGCCGACTTGGCGTGAAGGGAATGCAACAAGCGTGCTCAAAATTCGCAACAGTTCATGAAATTTTCACAAAACCTGCTACCGAGGGTCGGAAAGTCCCGTAAACGCGGGGCGAAGGCTGCTTGTGTGATTTGTGCGATCGAGAATCATTAAAAATTATAAAGTTGCCCTTAGAGTCAAAGTGTTACCGCGACTTGTTCATCCAGCGTCGTTTGTGGGGTGGTCAGTGTGGGAGGGGCGGGCAGGTGGCCTCATTTTGGTGCGAAAAGTAGCGCTGTGTTACCGGGAGTGTGCAAGGTATCCTTGCTGCCCTGTTTTCCGCCTGAAGCGTCTAG (double strand) [PP1206 (oprD) promoter]
CbrB [2]; CbrB 0-2 uM
  binding result: binds

## TTGTGTGGGTGAAGTGTTACCTCCCGCACATTTCTGCGACAAAAATCGGGTAACAGGGAAACAAATCGGCAGAA / TTTTCTGCCGATTTGTTTCCCTGTTACCCGATTTTTGTCGCAGAAATGTGCGGGAGGTAACACTTCACCCACAC [PcrcY R1 mutant]
CbrB [3]
  binding result: binds more weakly
